The subject of this experiment is BDF1 mice, P388 leukemia ip, median survival T/C. The experiment is described as follows: NCI In Vivo Anticancer Drug Screen. Data for tumor model P388 Leukemia (intraperitoneal) in B6D2F1 (BDF1) mice. The settings on record: T/C endpoint: median survival time, higher T/C = longer survival. The method in brief:
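Survival ratio, drug arm over vehicle arm, in mice with a transplanted tumour.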

[1] abbreviates: dose: 100.0 mg/kg/injection, schedule: Q04DX003 (ip), vehicle: saline.
The mark [2] stands for this setting: dose: 25.0 mg/kg/injection, schedule: Q04DX003 (ip), vehicle: saline with Tween-80.
Setting [3] is: dose: 50.0 mg/kg/injection, schedule: Q01DX009 (ip), vehicle: saline.
Setting [4] is: dose: 100.0 mg/kg/injection, schedule: Q01DX009 (ip), vehicle: saline.
Where [5] appears, read: dose: 200.0 mg/kg/injection, schedule: Q01DX009 (ip), vehicle: saline.
Where [6] appears, read: dose: 100.0 mg/kg/injection, schedule: Q01DX009 (ip), vehicle: saline with Tween-80.

The list does not hold the whole screen: it is rich in T/C values a quarter to a half above the control, in often repeated tests (any T/C) and in doses without a T/C. Further doses and runs are listed elsewhere. T/C is the treated group as % of the vehicle group. Some entries give survivors of the animals treated and no T/C: the source files T/C as zero there, which appears to mark a toxic dose or a test without result, not a measured value. Some doses without a T/C left all or most animals alive at the check, yet need not have been tolerated: the source hardly ever lists a survival T/C far under the control, and the zero likely stands for such cases as well. Counts of survivors are from the toxicity check (mostly the fifth day) where no day follows; animals may have died later. Schedule codes are those of the source, read here as Q, the interval in days (D) or hours (H), X, the number of doses. For survival time, the PubChem record calls one and a half times the control and up active, and a quarter to a half above the control has no call in these data; cut-offs in other NCI protocols can differ. Some entries hold several experiments; the values are given in rising order. Some T/C values are followed by the survivors on the day toxicity was checked, most often the fifth; where none is given, no animal had died by that day.

Regarding `CC(=O)OCc1cc2cc(O)ccc2nc1C`, the survivor count is on record as 6 of 6 (dose: 25.0 mg/kg/injection, schedule: Q04DX003 (ip), vehicle: saline); 6 of 6 (dose: 50.0 mg/kg/injection, schedule: Q04DX003 (ip), vehicle: saline); 6 of 6 under setting [1]. Moreover, the T/C (dose: 200.0 mg/kg/injection, schedule: Q04DX003 (ip), vehicle: saline) is 133 % of control.

Regarding `CN(C)c1ccc(C(O)C(N)=O)cc1` (stereo not given), where the note is “dose: 12.5 mg/kg/injection, schedule: Q01DX009 (ip), vehicle: saline”, the survivor count is 5 of 6.

Take `COC[C@H]1OC(=O)c2coc3c2[C@@]1(C)C1=C(C3=O)[C@@H]2CCC(=O)[C@@]2(C)C[C@H]1OC(C)=O`: the T/C (dose: 1.25 mg/kg/injection, schedule: Q01DX009 (ip), vehicle: saline) was 126 % of control.

In the case of `C=CC12COC(=O)C(=C)C1C1OC(=O)C(=C)C1C(O)C2` (stereo not given), the T/C was 131 % of control (dose: 2.5 mg/kg/injection, schedule: Q01DX009 (ip), vehicle: saline + alcohol); 126 % of control [5 of 6 alive] (dose: 3.0 mg/kg/injection, schedule: Q01DX010 (ip), vehicle: carboxymethylcellulose (CMC)); 145 % of control (dose: 4.0 mg/kg/injection, schedule: Q01DX009 (ip), vehicle: water); 136 % of control (dose: 5.0 mg/kg/injection, schedule: Q01DX009 (ip), vehicle: saline + alcohol); 127 % of control (dose: 20.0 mg/kg/injection, schedule: Q01DX009 (ip), vehicle: saline + alcohol). Further, the survivor count (dose: 7.0 mg/kg/injection, schedule: Q01DX010 (ip), vehicle: carboxymethylcellulose (CMC)) is 3 of 6; the survivor count (dose: 10.6 mg/kg/injection, schedule: Q01DX010 (ip), vehicle: carboxymethylcellulose (CMC)) is listed as 2 of 6; the survivor count (dose: 16.0 mg/kg/injection, schedule: Q01DX010 (ip), vehicle: carboxymethylcellulose (CMC)) is listed as 0 of 6; the survivor count (dose: 24.0 mg/kg/injection, schedule: Q01DX010 (ip), vehicle: carboxymethylcellulose (CMC)) was 0 of 6.

Turning to `CC(=O)n1cc(F)c(=O)[nH]c1=O`, the T/C was 137 % of control (dose: 0.85 mg/kg/injection, schedule: Q01DX009 (ip), vehicle: saline); 125 % of control (dose: 1.3 mg/kg/injection, schedule: Q01DX009 (ip), vehicle: saline); 130 % of control (dose: 3.12 mg/kg/injection, schedule: Q01DX009 (ip), vehicle: saline with Tween-80); 145 % of control (dose: 4.8 mg/kg/injection, schedule: Q01DX009 (ip), vehicle: saline with Tween-80); 127 % of control (dose: 15.0 mg/kg/injection, schedule: Q04DX003 (ip), vehicle: saline); 133 and 135 % of control under setting [2]. Further, the T/C reads like this: (dose: 30.0 mg/kg/injection, schedule: Q04DX003 (ip), vehicle: saline) 145 % of control; (dose: 45.0 mg/kg/injection, schedule: Q04DX003 (ip), vehicle: other) 129 % of control; (dose: 50.0 mg/kg/injection, schedule: Q04DX003 (ip), vehicle: saline with Tween-80) 147 % of control; (dose: 65.0 mg/kg/injection, schedule: Q04DX003 (ip), vehicle: other) 133 % of control; (dose: 100.0 mg/kg/injection, schedule: Q04DX003 (ip), vehicle: saline with Tween-80) 133 [5 of 6 alive] and 145 % of control. Also, the survivor count is, setting by setting: (dose: 25.0 mg/kg/injection, schedule: Q01DX010 (ip), vehicle: saline with Tween-80) 5 of 6; (dose: 50.0 mg/kg/injection, schedule: Q01DX010 (ip), vehicle: saline with Tween-80) 6 of 6; (dose: 75.0 mg/kg/injection, schedule: Q01DX009 (ip), vehicle: saline) 6 of 6; (dose: 100.0 mg/kg/injection, schedule: Q01DX010 (ip), vehicle: saline with Tween-80) 6 of 6; (dose: 115.0 mg/kg/injection, schedule: Q01DX009 (ip), vehicle: saline) 6 of 6; (dose: 170.0 mg/kg/injection, schedule: Q01DX009 (ip), vehicle: saline) 6 of 6. In addition, the survivor count (dose: 200.0 mg/kg/injection, schedule: Q01DX010 (ip), vehicle: saline with Tween-80) is recorded as 6 of 6 and the survivor count (dose: 200.0 mg/kg/injection, schedule: Q04DX003 (ip), vehicle: saline with Tween-80) is recorded as 6 of 6.

Turning to `C#CCOCCBr`, the T/C is, setting by setting: (dose: 33.0 mg/kg/injection, schedule: Q01DX009 (ip), vehicle: saline) 131 % of control; under setting [3], 136 and 145 % of control; under setting [4], 127 % of control. Further, the survivor count under setting [3] is 2 of 6, the survivor count under setting [4] is on record as 4 of 6 and the survivor count under setting [5] is reported as 0 of 6.

With `COc1cc(C=Nc2cccc(Cl)c2)ccc1N(CCCl)CCCl`, the T/C by setting is: (dose: 4.0 mg/kg/injection, schedule: Q04DX003 (ip), vehicle: saline with Tween-80) 133 % of control; (dose: 75.0 mg/kg/injection, schedule: Q04DX003 (ip), vehicle: saline with Tween-80) 142 % of control.

On to `O=[N+]([O-])c1ccc([N+](=O)[O-])c(Cl)c1`, for which the survivor count is recorded as 6 of 6 (dose: 200.0 mg/kg/injection, schedule: Q04DX003 (ip), vehicle: Klucel (hydroxypropylcellulose) (HPC)); 5 of 6 (dose: 225.0 mg/kg/injection, schedule: Q01DX009 (ip), vehicle: Klucel (hydroxypropylcellulose) (HPC)); 5 of 6 (dose: 335.0 mg/kg/injection, schedule: Q01DX009 (ip), vehicle: Klucel (hydroxypropylcellulose) (HPC)); 6 of 6 (dose: 400.0 mg/kg/injection, schedule: Q04DX003 (ip), vehicle: Klucel (hydroxypropylcellulose) (HPC)).

In the case of `C=C(Cl)CSCC`, the survivor count is, setting by setting: (dose: 50.0 mg/kg/injection, schedule: Q01DX009 (ip), vehicle: acetone) 1 of 6; (dose: 180.0 mg/kg/injection, schedule: Q01DX001 (ip), vehicle: saline) 2 of 6.

With `[Cl][Al]([Cl])[Cl]`, the survivor count is, setting by setting: under setting [6], 3 of 6; (dose: 200.0 mg/kg/injection, schedule: Q01DX009 (ip), vehicle: saline with Tween-80) 1 of 6; (dose: 400.0 mg/kg/injection, schedule: Q01DX009 (ip), vehicle: saline with Tween-80) 1 of 6.

Turning to `CC1CN1C(=O)c1cc(C(=O)N2CC2C)cc(C(=O)N2CC2C)c1` (stereo not given), the T/C is 127 % of control (dose: 16.5 mg/kg/injection, schedule: Q01DX009 (ip), vehicle: saline with Tween-80); 127 % of control (dose: 16.5 mg/kg/injection, schedule: Q04DX003 (ip), vehicle: saline with Tween-80); 130 % of control under setting [2]; 140 % of control (dose: 33.0 mg/kg/injection, schedule: Q04DX003 (ip), vehicle: saline with Tween-80); 130 % of control (dose: 37.5 mg/kg/injection, schedule: Q04DX003 (ip), vehicle: saline with Tween-80). Besides, the survivor count is, setting by setting: under setting [6], 4 of 6; under setting [1], 5 of 6.

For the compound `N#CC(C#N)=c1ccc(=C(C#N)C#N)cc1`, the survivor count under setting [6] is 2 of 6.

In the case of `Cc1cc(-c2ccccc2)[n+](C)n1C`, the survivor count (dose: 50.0 mg/kg/injection, schedule: Q01DX009 (ip), vehicle: saline with Tween-80) is reported as 2 of 6.

Consider `CSc1ncc2n1C=CN(C(=O)c1ccc([N+](=O)[O-])cc1)C2O` (stereo not given), for which, under setting [4], the survivor count is reported as 4 of 6.

`CC(=O)Nc1ccc(S(=O)(=O)Oc2ccc([N+](=O)[O-])cc2)cc1`: the survivor count under setting [3] is 6 of 6; the survivor count under setting [4] is recorded as 6 of 6; the survivor count under setting [5] is on record as 6 of 6; the survivor count (dose: 400.0 mg/kg/injection, schedule: Q01DX009 (ip), vehicle: saline) was 6 of 6.

The values above are taken from PubChem BioAssay AID328 (DTP/NCI, 2004).
